Assay results as given in patent US20200108069A1, “Treatment of Fibrotic Conditions” (ANGLIA RUSKIN UNIVERSITY HIGHER EDUCATION CORPORATION, priority 2018, published 2020).

Legend:
[1] = system: TGF-β1-induced myofibroblast ECM protein production, cells derived from TA tissue; assay: ECM production assay; assay type: cell-based; conditions: Homo sapiens, 168 h; 10 ng/ml TGF-β1 for 7 days; read-out: IC50, TGF-β1-induced ECM protein production: collagen III
Protocol: Cells were seeded onto 96 well optical flat bottom black microplates (Nunc, Fisher Scientific, UK) at 5×10^3 cells per well. After overnight attachment, they were stimulated with or without 10 ng/ml TGF-β1 and/or compounds for 7 days. DRAQS in PBS (1:1,000) was added and cells were incubated for 5 min at 37° C., 5% CO2 before scanning the plate to obtain nuclear staining. […] Afterwards ECM was stained either with Coomassie Blue (total ECM) overnight at 4° C. or with primary antibodies (collagen I, abcam; collagen III, Millipore; collagen V, abcam: fibronectin, Millipore) at 1:1000 for 1 h on a shaker, followed by incubation with secondary antibody and scanning the plate using an infrared imaging system (Odyssey CLx imager, LI-COR, UK) at both the 700 nm and 800 nm wavelengths. Results were normalized to the cell number before lysis.

[2] = system: fibroblasts isolated from human tunica albuginea (TA); TGF-β1-induced myofibroblast transformation; assay: In Cell ELISA (ICE) phenotypic screening assay of TGF-β1-induced myofibroblast transformation (α-SMA/DNA staining); assay type: cell-based; conditions: Fibroblast, co-incubation with 10 ng/ml TGF-β1 for 72 hours, α-SMA/DNA staining ratio, read-out: IC50, inhibition of TGF-β1-induced myofibroblasts transformation
Text: Tunica albuginea tissue samples were collected from patients undergoing surgery at University College London Hospital (UCLH), London, UK for penile cancer or PD. All patients gave fully informed written consent to the study. The study was approved by independent research ethics committees (NRES Committee East of England 12/EE/0170 and NRES Committee North of Scotland 15/NS/0051). PD plaque tissue was obtained from patients with chronic PD undergoing a Lue procedure (plaque incision and grafting). Plaque tissue would have otherwise been discarded. Non-plaque TA was obtained from PD patients undergoing a Nesbit procedure whereby non-fibrotic TA tissue was excised from the opposite side of the plaque. TA tissue samples from patients with penile cancer were taken from the proximal side away from the tumour, with the tumour showing negative margins on histological examination.
Tissue samples were carefully dissected to ensure that all cavernosal tissue was removed from the tunica albuginea (TA). To establish fibroblast cultures, TA fragments were seeded in 6-well tissue culture plates (Nunc, Fisher Scientific, UK) as described previously16. The tissue pieces were incubated in DMEM-F12 (GIBCO, Invitrogen, UK) containing 10% FCS (Fisher Scientific, UK) and 1% penicillin-streptomycin (GIBCO, Invitrogen, UK) at 37° C., 5% CO2 for 5-7 days. […]

CC/C(=C(\c1ccccc1)c1ccc(OCCN(C)C)cc1)c1ccccc1 [tamoxifen]
IC50 [1]: 5.3 µM | IC50 [2]: 11.9 µM
